Data reported in PMC3869375.
These are yes or no findings as the source states them, for the method shown. In cells and extracts the contact can be indirect. Some entries that bind do so weakly or less than the wild type.

The chains behind the UniProt entries cited, without tags or fusion partners.
UniProt Q6PDK2: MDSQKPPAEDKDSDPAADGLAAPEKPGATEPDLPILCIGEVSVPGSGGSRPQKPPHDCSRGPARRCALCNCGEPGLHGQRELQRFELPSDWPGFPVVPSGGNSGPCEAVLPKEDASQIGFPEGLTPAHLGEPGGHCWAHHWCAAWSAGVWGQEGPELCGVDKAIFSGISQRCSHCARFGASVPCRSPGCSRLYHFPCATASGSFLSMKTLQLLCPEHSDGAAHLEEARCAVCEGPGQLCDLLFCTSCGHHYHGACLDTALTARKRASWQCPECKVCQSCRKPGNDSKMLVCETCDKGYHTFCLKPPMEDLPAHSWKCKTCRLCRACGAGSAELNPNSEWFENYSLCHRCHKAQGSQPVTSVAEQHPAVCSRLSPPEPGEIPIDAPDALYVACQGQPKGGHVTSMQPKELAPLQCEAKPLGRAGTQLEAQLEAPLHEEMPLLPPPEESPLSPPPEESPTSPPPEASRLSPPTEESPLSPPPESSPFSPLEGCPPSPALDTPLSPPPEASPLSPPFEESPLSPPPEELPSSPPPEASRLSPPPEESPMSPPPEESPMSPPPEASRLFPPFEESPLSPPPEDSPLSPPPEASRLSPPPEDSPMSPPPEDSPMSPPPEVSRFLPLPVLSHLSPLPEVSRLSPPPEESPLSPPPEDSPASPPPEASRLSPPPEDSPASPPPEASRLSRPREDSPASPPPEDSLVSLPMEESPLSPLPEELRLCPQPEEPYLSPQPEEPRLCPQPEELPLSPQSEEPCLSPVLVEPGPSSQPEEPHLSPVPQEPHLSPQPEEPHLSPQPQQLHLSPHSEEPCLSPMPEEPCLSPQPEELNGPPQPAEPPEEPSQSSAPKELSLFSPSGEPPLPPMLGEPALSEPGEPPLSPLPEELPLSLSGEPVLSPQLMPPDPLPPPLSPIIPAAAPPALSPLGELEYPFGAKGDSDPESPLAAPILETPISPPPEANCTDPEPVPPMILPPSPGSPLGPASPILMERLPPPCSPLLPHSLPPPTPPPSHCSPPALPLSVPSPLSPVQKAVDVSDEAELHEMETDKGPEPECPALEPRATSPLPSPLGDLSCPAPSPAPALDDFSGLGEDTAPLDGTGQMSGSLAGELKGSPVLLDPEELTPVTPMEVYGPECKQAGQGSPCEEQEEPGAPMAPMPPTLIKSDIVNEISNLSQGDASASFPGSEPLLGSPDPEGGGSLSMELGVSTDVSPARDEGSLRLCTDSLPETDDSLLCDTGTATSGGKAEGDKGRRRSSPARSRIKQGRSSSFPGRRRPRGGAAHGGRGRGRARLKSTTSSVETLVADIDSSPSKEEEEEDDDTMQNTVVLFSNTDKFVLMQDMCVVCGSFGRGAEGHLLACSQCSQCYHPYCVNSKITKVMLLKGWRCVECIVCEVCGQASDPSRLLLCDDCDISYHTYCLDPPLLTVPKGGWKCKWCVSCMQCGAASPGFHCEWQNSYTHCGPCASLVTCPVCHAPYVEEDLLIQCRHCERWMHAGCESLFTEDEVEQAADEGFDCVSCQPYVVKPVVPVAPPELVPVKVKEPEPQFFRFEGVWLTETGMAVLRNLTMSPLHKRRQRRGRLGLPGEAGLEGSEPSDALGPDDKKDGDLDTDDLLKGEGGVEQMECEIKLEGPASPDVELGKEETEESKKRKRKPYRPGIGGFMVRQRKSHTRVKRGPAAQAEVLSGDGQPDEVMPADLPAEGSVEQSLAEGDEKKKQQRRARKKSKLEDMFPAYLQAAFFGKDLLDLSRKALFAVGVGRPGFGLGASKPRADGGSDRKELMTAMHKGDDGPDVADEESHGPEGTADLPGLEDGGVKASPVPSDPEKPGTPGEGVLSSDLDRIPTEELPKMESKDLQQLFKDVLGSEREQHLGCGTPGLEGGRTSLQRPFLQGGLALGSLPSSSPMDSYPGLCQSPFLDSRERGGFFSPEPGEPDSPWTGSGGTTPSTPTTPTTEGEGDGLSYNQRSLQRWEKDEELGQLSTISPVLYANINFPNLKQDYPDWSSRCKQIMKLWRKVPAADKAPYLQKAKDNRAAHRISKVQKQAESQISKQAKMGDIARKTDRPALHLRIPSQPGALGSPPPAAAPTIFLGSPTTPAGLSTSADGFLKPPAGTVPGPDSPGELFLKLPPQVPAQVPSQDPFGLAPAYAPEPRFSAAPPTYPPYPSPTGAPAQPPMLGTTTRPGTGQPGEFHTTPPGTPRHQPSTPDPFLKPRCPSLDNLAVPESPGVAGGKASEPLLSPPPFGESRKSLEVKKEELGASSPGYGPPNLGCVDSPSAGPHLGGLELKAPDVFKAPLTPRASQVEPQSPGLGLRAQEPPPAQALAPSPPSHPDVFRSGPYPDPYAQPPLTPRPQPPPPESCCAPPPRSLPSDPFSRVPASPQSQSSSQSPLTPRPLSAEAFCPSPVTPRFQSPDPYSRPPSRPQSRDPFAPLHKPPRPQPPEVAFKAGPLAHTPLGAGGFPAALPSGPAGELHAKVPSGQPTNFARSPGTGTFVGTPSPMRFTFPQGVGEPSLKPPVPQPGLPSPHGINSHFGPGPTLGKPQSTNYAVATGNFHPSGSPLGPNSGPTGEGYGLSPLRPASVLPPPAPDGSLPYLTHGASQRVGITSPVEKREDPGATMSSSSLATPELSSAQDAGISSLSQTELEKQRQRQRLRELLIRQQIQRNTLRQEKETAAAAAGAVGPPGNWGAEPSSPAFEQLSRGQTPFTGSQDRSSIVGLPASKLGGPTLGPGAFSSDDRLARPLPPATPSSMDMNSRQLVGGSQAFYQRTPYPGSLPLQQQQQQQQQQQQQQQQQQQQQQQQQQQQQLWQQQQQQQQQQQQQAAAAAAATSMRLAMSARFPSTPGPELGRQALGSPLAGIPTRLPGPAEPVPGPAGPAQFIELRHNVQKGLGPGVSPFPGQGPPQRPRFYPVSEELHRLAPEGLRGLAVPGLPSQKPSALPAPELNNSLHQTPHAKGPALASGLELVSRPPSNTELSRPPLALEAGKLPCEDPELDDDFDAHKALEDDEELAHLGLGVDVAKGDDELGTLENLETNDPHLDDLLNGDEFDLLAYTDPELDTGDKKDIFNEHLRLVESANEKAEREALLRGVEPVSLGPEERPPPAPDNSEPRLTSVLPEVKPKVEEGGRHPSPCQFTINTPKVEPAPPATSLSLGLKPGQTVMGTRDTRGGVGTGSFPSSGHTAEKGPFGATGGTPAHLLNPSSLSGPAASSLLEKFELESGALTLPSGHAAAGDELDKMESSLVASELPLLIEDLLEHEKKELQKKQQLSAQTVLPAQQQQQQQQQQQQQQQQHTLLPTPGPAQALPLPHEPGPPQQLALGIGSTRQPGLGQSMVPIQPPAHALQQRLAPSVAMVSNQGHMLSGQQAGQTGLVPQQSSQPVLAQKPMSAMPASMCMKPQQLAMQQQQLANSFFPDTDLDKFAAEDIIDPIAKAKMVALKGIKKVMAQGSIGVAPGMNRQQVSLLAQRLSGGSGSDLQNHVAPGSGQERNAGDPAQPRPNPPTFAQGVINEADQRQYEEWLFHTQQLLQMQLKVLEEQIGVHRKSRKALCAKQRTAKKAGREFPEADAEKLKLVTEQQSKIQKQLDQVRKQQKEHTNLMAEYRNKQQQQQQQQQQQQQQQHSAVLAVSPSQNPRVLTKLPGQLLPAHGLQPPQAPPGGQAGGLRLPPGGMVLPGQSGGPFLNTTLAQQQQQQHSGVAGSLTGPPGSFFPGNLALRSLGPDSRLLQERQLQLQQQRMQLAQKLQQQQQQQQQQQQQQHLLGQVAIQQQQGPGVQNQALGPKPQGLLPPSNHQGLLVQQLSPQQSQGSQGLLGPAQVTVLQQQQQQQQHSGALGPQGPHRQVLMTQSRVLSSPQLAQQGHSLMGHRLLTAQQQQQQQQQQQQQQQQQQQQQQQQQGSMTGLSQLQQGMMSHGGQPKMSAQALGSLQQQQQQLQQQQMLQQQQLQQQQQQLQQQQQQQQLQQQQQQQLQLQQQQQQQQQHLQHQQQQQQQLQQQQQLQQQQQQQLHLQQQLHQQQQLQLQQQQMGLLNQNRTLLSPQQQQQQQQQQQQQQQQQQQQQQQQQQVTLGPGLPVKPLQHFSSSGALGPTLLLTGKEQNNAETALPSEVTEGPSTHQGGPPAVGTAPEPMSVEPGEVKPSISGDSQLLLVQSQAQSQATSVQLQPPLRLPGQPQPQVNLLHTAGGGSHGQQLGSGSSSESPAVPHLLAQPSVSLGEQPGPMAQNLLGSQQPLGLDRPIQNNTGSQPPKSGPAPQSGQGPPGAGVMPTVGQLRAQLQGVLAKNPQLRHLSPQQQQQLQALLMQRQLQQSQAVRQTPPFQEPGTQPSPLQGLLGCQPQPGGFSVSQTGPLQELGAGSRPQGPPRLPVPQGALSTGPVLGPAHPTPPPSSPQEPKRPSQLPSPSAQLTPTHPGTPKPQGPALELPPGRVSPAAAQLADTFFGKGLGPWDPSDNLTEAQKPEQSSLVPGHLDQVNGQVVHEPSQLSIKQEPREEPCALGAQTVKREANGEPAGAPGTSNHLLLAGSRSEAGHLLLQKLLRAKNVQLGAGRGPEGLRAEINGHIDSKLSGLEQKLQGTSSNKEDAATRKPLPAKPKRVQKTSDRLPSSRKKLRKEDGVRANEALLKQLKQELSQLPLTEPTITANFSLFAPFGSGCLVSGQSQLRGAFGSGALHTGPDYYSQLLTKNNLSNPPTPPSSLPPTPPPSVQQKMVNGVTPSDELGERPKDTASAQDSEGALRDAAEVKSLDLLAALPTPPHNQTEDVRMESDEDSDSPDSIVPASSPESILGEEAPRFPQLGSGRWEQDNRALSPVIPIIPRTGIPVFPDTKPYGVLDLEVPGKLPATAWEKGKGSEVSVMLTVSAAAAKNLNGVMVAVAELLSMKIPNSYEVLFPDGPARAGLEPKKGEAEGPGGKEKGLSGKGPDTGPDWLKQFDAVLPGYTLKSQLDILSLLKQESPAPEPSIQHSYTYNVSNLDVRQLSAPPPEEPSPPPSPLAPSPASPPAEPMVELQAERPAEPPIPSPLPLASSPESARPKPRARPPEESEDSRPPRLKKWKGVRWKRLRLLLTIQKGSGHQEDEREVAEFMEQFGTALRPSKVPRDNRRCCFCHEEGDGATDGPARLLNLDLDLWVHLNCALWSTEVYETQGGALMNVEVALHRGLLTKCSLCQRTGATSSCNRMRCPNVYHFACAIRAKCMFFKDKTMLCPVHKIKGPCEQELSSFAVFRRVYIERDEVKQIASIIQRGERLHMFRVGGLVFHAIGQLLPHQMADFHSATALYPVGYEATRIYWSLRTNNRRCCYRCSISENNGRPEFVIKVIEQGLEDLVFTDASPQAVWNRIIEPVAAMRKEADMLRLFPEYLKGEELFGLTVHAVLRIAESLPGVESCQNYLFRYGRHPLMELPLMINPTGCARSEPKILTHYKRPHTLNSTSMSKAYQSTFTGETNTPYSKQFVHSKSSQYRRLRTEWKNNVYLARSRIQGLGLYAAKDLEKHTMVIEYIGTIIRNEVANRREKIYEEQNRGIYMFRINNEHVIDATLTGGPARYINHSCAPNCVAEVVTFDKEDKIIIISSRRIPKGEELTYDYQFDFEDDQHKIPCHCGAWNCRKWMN
UniProt P28033: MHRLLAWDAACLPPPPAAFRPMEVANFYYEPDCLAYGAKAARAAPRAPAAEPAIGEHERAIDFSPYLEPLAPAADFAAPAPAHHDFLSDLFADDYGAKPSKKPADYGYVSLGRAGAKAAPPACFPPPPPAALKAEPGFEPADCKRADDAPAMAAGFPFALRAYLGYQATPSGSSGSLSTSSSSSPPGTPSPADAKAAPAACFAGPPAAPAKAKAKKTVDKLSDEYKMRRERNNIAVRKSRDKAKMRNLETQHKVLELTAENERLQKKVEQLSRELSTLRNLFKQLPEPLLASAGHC

Target: MLL4 (KMT2D) (mouse (endogenous in preadipocytes induced for adipogenesis)) (UniProt Q6PDK2)
Assay: co-IP; nuclear extracts prepared at day 2 of adipogenesis immunoprecipitated with MLL4 antibody; immunoprecipitates analysed by Western blot

Q: Which binding does the source give for “CCAAT/enhancer-binding protein-β (C/EBPβ) (from UniProt P28033 1-296)” here?
A: binds
